{"source": "PubChem BioAssay AID743121 (NCATS, 2013)", "screen": "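Genes whose silencing strengthens cell killing by camptothecin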 (primary screen)", "system": "MDA-MB-231 cells, a human breast cancer line", "reagent": "single siRNA against human genes, 20 nM siRNA (0.8 pmol per well)", "time to read-out": "120 h (drug added 48 h after transfection, read 72 h later)", "treatment": "camptothecin 20 nM (about EC30) for 72 h; vehicle 0.1% DMSO in parallel plates", "measured": "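CellTiter-Glo ATP signal, scaled to control siRNA as percent viability; sensitisation given as log2 of untreated divided by camptothecin-treated viability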", "scale": "log2 vehicle/camptothecin viability: higher = stronger sensitisation to camptothecin", "call rule": "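Active genes have an RSA gene-level p-value below 0.001, computed from the ratios of their separate siRNAs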", "note": "This is a random part of about 26,000 reagents tested. 167 of them (0.63%) count as active. 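Calls are per gene from RSA p-values that are not deposited; an individual active-marked siRNA can sensitise only weakly.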 Reagents against one gene are numbered here. Not all columns of the deposit are shown. Reagent sequences are not shown."}
{"Gene": "CCNT1", "reagent": 1, "log2 vehicle/camptothecin viability": 0.0495, "activity call": "inactive"}
{"Gene": "CCNT1", "reagent": 2, "log2 vehicle/camptothecin viability": -1, "activity call": "inactive"}
{"Gene": "CCNT1", "reagent": 3, "log2 vehicle/camptothecin viability": -0.263, "activity call": "inactive"}
{"Gene": "ING1", "reagent": 1, "log2 vehicle/camptothecin viability": -0.139, "activity call": "inactive"}
{"Gene": "ING1", "reagent": 2, "log2 vehicle/camptothecin viability": 0.0453, "activity call": "inactive"}
{"Gene": "ING1", "reagent": 3, "log2 vehicle/camptothecin viability": 0.0573, "activity call": "inactive"}
{"Gene": "LONRF1", "reagent": 1, "log2 vehicle/camptothecin viability": 0.144, "activity call": "inactive"}
{"Gene": "LONRF1", "reagent": 2, "log2 vehicle/camptothecin viability": 0.0738, "activity call": "inactive"}
{"Gene": "LONRF1", "reagent": 3, "log2 vehicle/camptothecin viability": 0.535, "activity call": "inactive"}
{"Gene": "LONRF1", "reagent": 4, "log2 vehicle/camptothecin viability": -0.0233, "activity call": "inactive"}
{"Gene": "KCNG3", "reagent": 1, "log2 vehicle/camptothecin viability": -0.303, "activity call": "inactive"}
{"Gene": "KCNG3", "reagent": 2, "log2 vehicle/camptothecin viability": 0.394, "activity call": "inactive"}
{"Gene": "KCNG3", "reagent": 3, "log2 vehicle/camptothecin viability": 0.0847, "activity call": "inactive"}
{"Gene": "KCNG3", "reagent": 4, "log2 vehicle/camptothecin viability": 0.0242, "activity call": "inactive"}

Individual results from the list.
Value for LONRF1 #3 in “activity call”: inactive
KCNG3 #4, activity call: inactive
